Source: US20110275707A1, “SUBSTITUTED AFPO (6-ARYL-4H-FURO[3,2-C]PYRAN-4-ONE) DERIVATIVES AS ANTI-CANCER AGENTS” (priority 2008, published 2011)
Values joined by “and” are separate entries in the source; they are usually repeats but may differ in a detail not shown here. Equal entries are not always repeated. Some results were stated once for a whole list of compounds, not compound by compound.

System: SK-BR-3 (HER2+) human tumor cell line
Experiment: Cell growth inhibition assay (SRB), SK-BR-3
Format: cell-based
Details: SK-BR-3 versus six additional cancer cell lines
Experimental: Cell Growth Inhibition Assay. All stock cultures are grown in T-25 flasks. Freshly trypsinized cell suspensions were seeded in 96-well microliter plates with compounds added from DMSO-diluted stock. The plates were incubated for an additional 72 h after attachment and drug addition, and the assay was terminated by 10% TCA. Then, 0.4% SRB dye in 1% HOAc was added to stain the cells for 10 minutes. Unbound dye was removed by repeated washing with 1% HOAc and the plates were air dried. Bound stain was subsequently solved with 10 mM trizma base, and the absorbance read at 515 nm. Growth inhibition of 50% (GI50) is calculated as the drug concentration, which caused a 50% reduction in the net protein increase in control cells during the drug incubation. The mean ED50 is the concentration of agent that reduces cell growth by 50% under the experimental conditions and is the average from at least two independent determinations. Variation between replicates was no more than 5% of the mean. The following human tumor cell lines were used in the assay: A549 (non small cell lung cancer), ZR-75-1 (estrogen receptor positive breast cancer), MDA MB-231 (estrogen receptor negative breast cancer), SKBR-3 (estrogen receptor negative, HER-2 over-expressing breast cancer), KB (nasopharyngeal carcinoma), KB-VIN (vincristine-resistant KB subline). […]

SMILES | selectivity for SK-BR-3 compared with the other cancer cell lines tested
COc1cc(OC)cc(-c2cc3occ(C)c3c(=O)o2)c1 [Compound 25, 6-(3,5-Dimethoxyphenyl)-3-methyl-4H-furo[3,2-c]pyran-4-one] | 100- to 250 fold and 100-250 fold
COc1cc(-c2cc3occ(C)c3c(=O)o2)cc(OC)c1OC [Compound 27, 3-Methyl-6-(3,4,5-trimethoxyphenyl)-4H-furo[3,2-c]pyran-4-one] | 100- to 250 fold and 100-250 fold
